## Cell number after 72 h of treatment

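Human melanoma cell lines in 1,536-well plates were treated with two drugs together for 72 h, then fixed, stained and imaged. Each value is the count of nuclei relative to DMSO-treated wells, in %, so that 100 equals the control. Concentrations were fixed for each drug; these are the higher of two levels. These are primary screening values without error estimates.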 An unselected part of the screen is shown.

Every entry is a combination with palbociclib at 0.2 µM: CC(=O)c1c(C)c2cnc(Nc3ccc(N4CCNCC4)cn3)nc2n(C2CCCC2)c1=O

With Nc1ncn([C@H]2C[C@H](O)[C@@H](CO)O2)c(=O)n1 at 0.5 µM the screen read COLO 829: 64.4; C32: 75.4; COLO 800: 57.2; COLO 792: 36.8; WM451Lu: 72.5; WM3619: 61.1.
With C[C@]12O[C@H](C[C@]1(O)CO)n1c3ccccc3c3c4c(c5c6ccccc6n2c5c31)CNC4=O at 0.02 µM the screen read COLO 829: 91.1; C32: 98.9; COLO 800: 68.9; COLO 792: 46.4; WM451Lu: 70.6; WM3619: 75.4.
With COc1cc(N2CCC(N3CCN(C)CC3)CC2)ccc1Nc1ncc(Cl)c(Nc2ccccc2S(=O)(=O)C(C)C)n1 at 0.4 µM the screen read COLO 829: 75.3; C32: 55.1; COLO 800: 52.3; COLO 792: 41.3; WM451Lu: 52.4; WM3619: 54.8.
With C[C@@H]1CCN(C(=O)CC#N)C[C@@H]1N(C)c1ncnc2[nH]ccc12 at 5 µM the screen read COLO 829: 91.3; C32: 71.7; COLO 800: 135; COLO 792: 52.3; WM451Lu: 64.5; WM3619: 48.8.
With O=C(Oc1ccc([N+](=O)[O-])cc1)N1CCC(C(O)(c2ccc3c(c2)OCO3)c2ccc3c(c2)OCO3)CC1 at 5 µM the screen read COLO 829: 92.5; C32: 85.8; COLO 800: 105; COLO 792: 51.1; WM451Lu: 62.1; WM3619: 64.8.
With CO[C@@H]1[C@H](N(C)C(=O)c2ccccc2)C[C@H]2O[C@]1(C)n1c3ccccc3c3c4c(c5c6ccccc6n2c5c31)C(=O)NC4 at 0.4 µM the screen read COLO 829: 82.8; C32: 60.1; COLO 800: 55.8; COLO 792: 53.0; WM451Lu: 58.1; WM3619: 51.5.
With CC(=O)O[C@@]12CO[C@@H]1C[C@H](O)[C@@]1(C)C(=O)[C@H](O)C3=C(C)[C@@H](OC(=O)[C@H](O)[C@@H](NC(=O)OC(C)(C)C)c4ccccc4)C[C@@](O)([C@@H](OC(=O)c4ccccc4)[C@H]21)C3(C)C at 0.0005 µM the screen read COLO 829: 47.4; C32: 73.3; COLO 800: 26.9; COLO 792: 30.8; WM451Lu: 30.1; WM3619: 48.4.
With Cc1cc(Nc2cc(N3CCN(C)CC3)nc(Sc3ccc(NC(=O)C4CC4)cc3)n2)n[nH]1 at 0.03 µM the screen read COLO 829: 76.1; C32: 61.1; COLO 800: 69.9; COLO 792: 42.8; WM451Lu: 42.7; WM3619: 55.0.
With Cc1cc(Nc2cc(N3CCN(C)CC3)nc(/C=C/c3ccccc3)n2)n[nH]1 at 0.2 µM the screen read COLO 829: 59.5; C32: 76.7; COLO 800: 69.7; COLO 792: 37.1; WM451Lu: 64.2; WM3619: 59.1.
With C=CCn1c(=O)c2cnc(Nc3ccc(N4CCN(C)CC4)cc3)nc2n1-c1cccc(C(C)(C)O)n1 at 0.1 µM the screen read COLO 829: 84.0; C32: 78.8; COLO 800: 66.8; COLO 792: 46.7; WM451Lu: 53.5; WM3619: 58.3.
With Clc1ccc(Nc2nnc(Cc3ccncc3)c3ccccc23)cc1 at 10 µM the screen read COLO 829: 76.9; C32: 70.3; COLO 800: 59.9; COLO 792: 57.8; WM451Lu: 57.0; WM3619: 43.8.
With CCCS(=O)(=O)Nc1ccc(F)c(C(=O)c2c[nH]c3ncc(Cl)cc23)c1F at 0.4 µM the screen read COLO 829: 71.1; C32: 74.1; COLO 800: 95.8; COLO 792: 47.9; WM451Lu: 48.5; WM3619: 58.0.
With Cn1cnc2c(F)c(Nc3ccc(Br)cc3Cl)c(C(=O)NOCCO)cc21 at 0.075 µM the screen read COLO 829: 85.4; C32: 68.5; COLO 800: 58.4; COLO 792: 42.9; WM451Lu: 45.5; WM3619: 56.2.
With CNC(=O)c1cc(Oc2ccc(NC(=O)Nc3ccc(Cl)c(C(F)(F)F)c3)cc2)ccn1 at 2 µM the screen read COLO 829: 108; C32: 74.6; COLO 800: 113; COLO 792: 64.4; WM451Lu: 75.6; WM3619: 54.3.
With C/C(O)=C(\C#N)C(=O)Nc1cc(Br)ccc1Br at 10 µM the screen read COLO 829: 97.5; C32: 75.8; COLO 800: 42.9; COLO 792: 49.3; WM451Lu: 58.8; WM3619: 85.3.
With O=C(O)[C@@H]1[O][Sb](=[O])([O][Sb]2(=[O])[O][C@H]([C@H](O)CO)[C@H](O)[C@H](C(=O)O)[O]2)[O][C@H]([C@H](O)CO)[C@@H]1O (stereo partly specified) at 10 µM the screen read COLO 829: 77.0; C32: 65.1; COLO 800: 74.7; COLO 792: 43.2; WM451Lu: 52.7; WM3619: 63.5.
With CS(=O)(=O)c1ccc(C(=O)Nc2ccc(Cl)c(-c3ccccn3)c2)c(Cl)c1 at 5 µM the screen read COLO 829: 111; C32: 89.1; COLO 800: 68.4; COLO 792: 64.8; WM451Lu: 78.8; WM3619: 60.1.
With C[C@@H](Oc1cc(-c2cnn(C3CCNCC3)c2)cnc1N)c1c(Cl)ccc(F)c1Cl at 1 µM the screen read COLO 829: 91.6; C32: 63.4; COLO 800: 49.1; COLO 792: 63.4; WM451Lu: 46.3; WM3619: 62.3.
With Nc1cccc2c1CN(C1CCC(=O)NC1=O)C2=O (stereo unspecified) at 5 µM the screen read COLO 829: 77.1; C32: 81.6; COLO 800: 80.4; COLO 792: 50.3; WM451Lu: 76.0; WM3619: 69.8.
With Cn1c(Nc2ccc(C(F)(F)F)cc2)nc2cc(Oc3ccnc(-c4ncc(C(F)(F)F)[nH]4)c3)ccc21 at 0.4 µM the screen read COLO 829: 57.6; C32: 61.9; COLO 800: 75.5; COLO 792: 14.6; WM451Lu: 43.7; WM3619: 54.0.
With Cn1cc(C2=C(c3cn(C4CCN(Cc5ccccn5)CC4)c4ccccc34)C(=O)NC2=O)c2ccccc21 at 4 µM the screen read COLO 829: 93.7; C32: 66.9; COLO 800: 61.5; COLO 792: 43.6; WM451Lu: 88.4; WM3619: 63.5.
With Cc1nc(Nc2ncc(C(=O)Nc3c(C)cccc3Cl)s2)cc(N2CCN(CCO)CC2)n1 at 0.02 µM the screen read COLO 829: 45.0; C32: 64.5; COLO 800: 73.6; COLO 792: 31.9; WM451Lu: 55.7; WM3619: 49.1.
With Cc1cn(-c2cc(NC(=O)c3ccc(C)c(Nc4nccc(-c5cccnc5)n4)c3)cc(C(F)(F)F)c2)cn1 at 1 µM the screen read COLO 829: 117; C32: 61.8; COLO 800: 89.3; COLO 792: 54.4; WM451Lu: 65.9; WM3619: 54.9.
With O=C(Nc1ccccc1)c1cc([N+](=O)[O-])ccc1Cl at 10 µM the screen read COLO 829: 57.6; C32: 69.5; COLO 800: 78.0; COLO 792: 50.1; WM451Lu: 56.0; WM3619: 62.7.
With Cn1cncc1[C@@](N)(c1ccc(Cl)cc1)c1ccc2c(c1)c(-c1cccc(Cl)c1)cc(=O)n2C at 0.05 µM the screen read COLO 829: 70.5; C32: 81.0; COLO 800: 84.8; COLO 792: 50.8; WM451Lu: 73.7; WM3619: 55.6.
With CC1(C)CCC(c2ccc(Cl)cc2)=C(CN2CCN(c3ccc(C(=O)NS(=O)(=O)c4ccc(N[C@H](CCN5CCOCC5)CSc5ccccc5)c(S(=O)(=O)C(F)(F)F)c4)cc3)CC2)C1 at 2 µM the screen read COLO 829: 87.0; C32: 68.1; COLO 800: 77.3; COLO 792: 13.7; WM451Lu: 56.7; WM3619: 61.2.
With COC(=O)c1sccc1S(=O)(=O)Nc1ccc(Nc2ccccc2)cc1OC at 5 µM the screen read COLO 829: 78.7; C32: 66.9; COLO 800: 80.9; COLO 792: 51.4; WM451Lu: 69.0; WM3619: 64.2.
With C[As](C)SC[C@H](NC(=O)CC[C@H](N)C(=O)O)C(=O)NCC(=O)O at 2 µM the screen read COLO 829: 103; C32: 70.6; COLO 800: 100; COLO 792: 65.8; WM451Lu: 73.1; WM3619: 62.0.
With NC1(c2ccc(-c3nc4ccn5c(=O)[nH]nc5c4cc3-c3ccccc3)cc2)CCC1 at 2 µM the screen read COLO 829: 91.3; C32: 82.9; COLO 800: 72.9; COLO 792: 28.4; WM451Lu: 50.1; WM3619: 61.1.
With CCN(CC)CCCCNc1ncc2cc(-c3cc(OC)cc(OC)c3)c(NC(=O)NC(C)(C)C)nc2n1 at 0.5 µM the screen read COLO 829: 88.9; C32: 79.5; COLO 800: 52.6; COLO 792: 55.3; WM451Lu: 46.5; WM3619: 52.2.
With Cc1cc(SCc2sc(-c3ccc(C(F)(F)F)c(F)c3)nc2C)ccc1OCC(=O)O at 10 µM the screen read COLO 829: 81.3; C32: 56.7; COLO 800: 94.2; COLO 792: 60.1; WM451Lu: 74.4; WM3619: 54.8.
With NC(=O)Nc1cc(-c2cccc(F)c2)sc1C(=O)N[C@H]1CCCNC1 at 0.1 µM the screen read COLO 829: 77.4; C32: 65.6; COLO 800: 46.5; COLO 792: 26.2; WM451Lu: 61.4; WM3619: 98.5.
With COc1ccc(-c2ccc3c(N4CCOCC4)nc(N4C[C@@H](C)O[C@@H](C)C4)nc3n2)cc1CO at 0.1 µM the screen read COLO 829: 77.9; C32: 81.6; COLO 800: 68.9; COLO 792: 59.6; WM451Lu: 52.1; WM3619: 60.0.
With CC(C)CCN1c2nc(Nc3cc(F)c(O)c(F)c3)ncc2N(C)C(=O)C1C (stereo unspecified) at 1 µM the screen read COLO 829: 89.8; C32: 67.6; COLO 800: 49.5; COLO 792: 48.9; WM451Lu: 51.0; WM3619: 52.8.
With CO[C@H]1C[C@@H]2CC[C@@H](C)[C@@](O)(O2)C(=O)C(=O)N2CCCC[C@H]2C(=O)O[C@H]([C@H](C)C[C@@H]2CC[C@@H](OCCO)[C@H](OC)C2)CC(=O)[C@H](C)/C=C(\C)[C@@H](O)[C@@H](OC)C(=O)[C@H](C)C[C@H](C)/C=C/C=C/C=C/1C at 0.1 µM the screen read COLO 829: 76.6; C32: 91.4; COLO 800: 73.7; COLO 792: 41.0; WM451Lu: 61.0; WM3619: 90.4.
With N.N.[Cl][Pt][Cl] at 8 µM the screen read COLO 829: 70.4; C32: 82.2; COLO 800: 111; COLO 792: 63.7; WM451Lu: 83.4; WM3619: 84.2.
With C=C(c1ccc(C(=O)O)cc1)c1cc2c(cc1C)C(C)(C)CCC2(C)C at 10 µM the screen read COLO 829: 60.2; C32: 63.8; COLO 800: 86.6; COLO 792: 38.8; WM451Lu: 55.4; WM3619: 74.5.

2 of the entries, repeated:

* CCN(CC)CCCCNc1ncc2cc(-c3cc(OC)cc(OC)c3)c(NC(=O)NC(C)(C)C)nc2n1 at 0.5 µM | COLO 829: 88.9; C32: 79.5; COLO 800: 52.6; COLO 792: 55.3; WM451Lu: 46.5; WM3619: 52.2
* COc1cc(N2CCC(N3CCN(C)CC3)CC2)ccc1Nc1ncc(Cl)c(Nc2ccccc2S(=O)(=O)C(C)C)n1 at 0.4 µM | COLO 829: 75.3; C32: 55.1; COLO 800: 52.3; COLO 792: 41.3; WM451Lu: 52.4; WM3619: 54.8

From a melanoma drug combination screen (doi:10.1371/journal.pone.0140310); values rounded.